Reference: patent US20170158764A1
Positions count from the first letter of the chain named. These are yes or no findings as the source states them, for the method shown. A result given as binding can be weak or reduced; the word gives no strength.

B1: rat monoclonal antibody against cPD1 3B7-D9 (antibody, IgG2a, V domains shown)
VH: EVQLVETGGGLVQPGRSLKLSCVASGFTFNNYWMSWTRQAPGKGLEWVASITNSGVSTYYPDSVKGRFTISRDNAQNTLYLQMNSLRSEDTATYFCTSALNWGYWYFDFWGPGTMVTVSS
VL: DIVMTQTPSSQAVSAGEKVTMSCKSSQSLLYSENKKNYLAWYQRKPGQSPKLLIYWASTRESGVPDRFIGSGSGTDFTLTISSVQAEDLAVYYCQQYYNFPLTFGSGTKLEIK
B2: rat monoclonal antibody against cPD1 4F12-E6 (antibody, IgG2a, V domains shown)
VH: B1 VH with S35T, F95Y
VL: B1 VL with R44Q
B3: rat monoclonal antibody against cPDL1 H7-9 (antibody, IgG2a, V domains shown)
VH: QVQLKESGPGLVQPSQTLSLTCTVSGFSLTSYTVSWVRQPPGKGLEWIAAISSGGNTYSNSALKSRLSISRDTSKSQFFLKMNSLQTEDTAMYFCAREGYYGYNFDYWGQGVMVTVSS
VL: DIVMTQSPTSMSISVGDRVTMNCKASQNVGSNVDWYQQKTGQSPKLLIYKASNRYTGVPDRFTGSGSGTDFTFTISNMQAEDLAVYYCMQSNSYPLTFGSGTKLEIK
B4: rat monoclonal antibody against cPDL1 G11-6 (antibody, IgG2a, V domains shown)
VH: EVQLVESGGGLVQPGRSLKLSCAASGFTFSDYYMAWVRQAPKKGLEWVASISYEDSSTYYGDSVKGRFTISRDNAKSTLYLQMNSLRSEDTATYYCARSAWNYPYWFAYWGQGTLVTVSS
VL: NTVMTQSPTSMFISVGDRVTVNCKASQNVGTNVDWYQQKTGQSPKLLIYGASNRYTGVPDRFTGSGSGTDFTLTISNMQAEDLAVYYCLQYNYNPWTFGGGTKLELK

How the values were obtained:
[1] = molecular target: canine PD-1 with two C-terminal FLAG tags, stably expressed on NRK cells (NRK/cPD1) (dog); test: flow cytometry on NRK/cPD1 cells, antibody 0-10 ug/ml, anti-rat IgG-PE
[2] = molecular target: canine PD-1 expressed on canine cells (PBMC / activated T cells) (dog); test: flow cytometry of CD3-positive canine PBMC cultured with PMA/ionomycin or ConA, stained with the antibody
[3] = molecular target: canine PD-L1 with two C-terminal FLAG tags, stably expressed on NRK cells (NRK/cPDL1) (dog); test: flow cytometry on NRK/cPDL1 cells, antibody 0-10 ug/ml, anti-rat IgG-PE

Row | Binder | binding [1] | binding [2] | binding [3]
1 | B1 | binds | – | –
2 | B2 | binds | binds | –
3 | B3 | – | – | binds
4 | B4 | – | – | binds
